PubChem BioAssay AID504786 | Drosophila RNAi Screening Center – 2011
Aim: 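Fly genes required for HIF-dependent transcription when hypoxia is mimicked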 (primary screen). Cell system: Drosophila S2 cells with a stable HIF luciferase reporter. Reagent: long dsRNA against Drosophila genes, about 0.2 µg dsRNA per well of a 384-well plate. Duration: three days of knock-down, then 20 h of DFO before reading. Conditions: desferrioxamine (DFO) at 100 µM, an iron chelator that mimics hypoxia, for 20 h. Measured: 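Firefly luciferase driven by the mouse ldh-a hypoxia-response element, measured after 20 h of 100 µM DFO; z-scores per plate, higher means more signal lost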. Reading the numbers: z-score: higher = stronger loss of HIF reporter signal.
The screen tested about 21,000 reagents; shown is a random part of those with a known target gene and a result. 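Primary screen; positive scores mean lost reporter signal, so the sign may be inverted from the usual convention.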 A plus sign joins genes that one reagent is predicted to hit. Reagent sequences are not shown.

Akap200 (GeneID 34170) [DRSC01864] → z-score, replicate 1 = -0.1; z-score, replicate 2 = 0
Pdk (GeneID 35970) [DRSC07504] → z-score, replicate 1 = -0.3; z-score, replicate 2 = -0.8
Tim9a (GeneID 32294) [DRSC19753] → z-score, replicate 1 = -0.3; z-score, replicate 2 = -0.5
Antp (GeneID 40835) [DRSC12490] → z-score, replicate 1 = 0; z-score, replicate 2 = 1.1
pirk (GeneID 37468) [DRSC04269] → z-score, replicate 1 = -0.2; z-score, replicate 2 = -0.4
CG14591 (GeneID 35531) [DRSC04868] → z-score, replicate 1 = -0.3; z-score, replicate 2 = -0.2
CG12836 (GeneID 35630) [DRSC06182] → z-score, replicate 1 = -0.3; z-score, replicate 2 = -0.1
Dred (GeneID 40124) [DRSC11057] → z-score, replicate 1 = -0.2; z-score, replicate 2 = 0
Dred (GeneID 40124) [DRSC11059] → z-score, replicate 1 = -0.7; z-score, replicate 2 = -0.2
Arpc3A (GeneID 41917) [DRSC15596] → z-score, replicate 1 = 0.4; z-score, replicate 2 = 0.9
CG15118 (GeneID 37199) [DRSC06540] → z-score, replicate 1 = -0.1; z-score, replicate 2 = -0.2
nmo (GeneID 38890) [DRSC08902] → z-score, replicate 1 = 0.3; z-score, replicate 2 = 0.7
nmo (GeneID 38890) [DRSC11377] → z-score, replicate 1 = -0.1; z-score, replicate 2 = -0.1
nAChRbeta2 (GeneID 42920) [DRSC17010] → z-score, replicate 1 = -0.2; z-score, replicate 2 = -0.5
CG1628 (GeneID 31990) [DRSC18109] → z-score, replicate 1 = -0.4; z-score, replicate 2 = -0.4
E(spl)mdelta-HLH (GeneID 43150) [DRSC16698] → z-score, replicate 1 = 0; z-score, replicate 2 = -0.1
CG10333 (GeneID 35112) [DRSC02036] → z-score, replicate 1 = 1; z-score, replicate 2 = 2.3
DAAM (GeneID 31075) [DRSC18479] → z-score, replicate 1 = 0.1; z-score, replicate 2 = -0.4
SP1029 (GeneID 53473) [DRSC16848] → z-score, replicate 1 = -0.4; z-score, replicate 2 = -0.1

Entries listed so far whose gene name starts with C or c:
CG14591 (GeneID 35531) [DRSC04868] → z-score, replicate 1 = -0.3; z-score, replicate 2 = -0.2
CG12836 (GeneID 35630) [DRSC06182] → z-score, replicate 1 = -0.3; z-score, replicate 2 = -0.1
CG15118 (GeneID 37199) [DRSC06540] → z-score, replicate 1 = -0.1; z-score, replicate 2 = -0.2
CG1628 (GeneID 31990) [DRSC18109] → z-score, replicate 1 = -0.4; z-score, replicate 2 = -0.4
CG10333 (GeneID 35112) [DRSC02036] → z-score, replicate 1 = 1; z-score, replicate 2 = 2.3

The results go on.
mRpL54 (GeneID 37389) [DRSC04545] → z-score, replicate 1 = 0.8; z-score, replicate 2 = 1
mey (GeneID 43715) [DRSC14468] → z-score, replicate 1 = -0.1; z-score, replicate 2 = -0.4
CG15891 + CG15892 [DRSC18095] → z-score, replicate 1 = -0.1; z-score, replicate 2 = -0.4
CG15891 + CG15892 [DRSC18096] → z-score, replicate 1 = -0.1; z-score, replicate 2 = -0.3
CG4502 (GeneID 34002) [DRSC02755] → z-score, replicate 1 = -0.4; z-score, replicate 2 = -0.5
CG10116 (GeneID 39515) [DRSC09700] → z-score, replicate 1 = -0.1; z-score, replicate 2 = -0.1
meep (GeneID 261663) [DRSC07948] → z-score, replicate 1 = 4.5; z-score, replicate 2 = 2.6
CG5555 (GeneID 42302) [DRSC15834] → z-score, replicate 1 = 0.1; z-score, replicate 2 = 0
aub (GeneID 34524) [DRSC03486] → z-score, replicate 1 = -0.4; z-score, replicate 2 = -0.2
CG8097 (GeneID 32495) [DRSC20079] → z-score, replicate 1 = 0; z-score, replicate 2 = -0.8
Polr1F (GeneID 33963) [DRSC02278] → z-score, replicate 1 = 0.1; z-score, replicate 2 = 1.5
Prp16 (GeneID 32373) [DRSC19538] → z-score, replicate 1 = -0.5; z-score, replicate 2 = 0.4
Prp16 (GeneID 32373) [DRSC19542] → z-score, replicate 1 = -0.3; z-score, replicate 2 = 0.8
PXo (GeneID 38666) [DRSC09734] → z-score, replicate 1 = -0.3; z-score, replicate 2 = -0.2
vrs (GeneID 41537) [DRSC15832] → z-score, replicate 1 = -0.3; z-score, replicate 2 = -0.1
CG8613 (GeneID 36593) [DRSC07222] → z-score, replicate 1 = -0.3; z-score, replicate 2 = -0.3
CG33288 (GeneID 2768968) [DRSC11484] → z-score, replicate 1 = -0.6; z-score, replicate 2 = -1.1
CG9240 (GeneID 32505) [DRSC20177] → z-score, replicate 1 = -0.4; z-score, replicate 2 = -0.9
FucTD (GeneID 38164) [DRSC08634] → z-score, replicate 1 = 0; z-score, replicate 2 = 0
Herp (GeneID 34065) [DRSC02394] → z-score, replicate 1 = -0.4; z-score, replicate 2 = -0.8
CG14408 (GeneID 32407) [DRSC19595] → z-score, replicate 1 = -0.4; z-score, replicate 2 = -0.4
